B1: Adhesion regulating molecule region protein, putative (TGME49_224110) (protein, UniProt S8G5J3 1-396)
chain: MQEDMVFSLGTSKVTERDVELSFSKCLLHKRPEDSVCYLSGFPDFWVHSVLRPAWTSTRRLSVFPATLFFRSIMAMNFFSSPEGDSVSPESVSFRAGKCRINGNLVSPDTRKGRLQIGEGEDGLTHVRWINRENQQTEDDLIVINDAYLERVPECTTGRVYCLRFTSSDKKMLFWMQEPDASKDHALIEQFNARAGGVPAASNGDTETGASGSSASGTQQTDSGPNAQGIQQLRQLLANYSESLRRARGQPSATPLSEVLNSQTLSRVADDEETVKELVDLMPEGCRTEGDVREALRSAQLAAPMNGLTQAIYTNSSPLLSSMGVTGEDRAAATSPDAMMAFAQALEAHYRPAGEGKEAMSNEAANAAEGNPAGEEKKENEENSEQDTSGGEKKAD
B2: Uncharacterized protein TGME49_228630 (protein, UniProt S8GFY7 1-328)
chain: MAHSRERRSPSCQVSPLSPPTASGQRDVSVSERREKTCNAPCVSPFSRMKTSASPSFLLSNWFLIFLLFSLFCVIEGAKPKEGRPVTYGSAVSLVHVLSGFKLFSGKISWGSGSGQQAVTATPSGDKAAAANMLWIVSAPPSGMRRQPLDSPVMEAQMAGSKSSASSEPAPALVTPGAAGEPVRCGSVIFLEHGSSRGTLQATGASSPISSQKEVSVGAGRDTRVAGFKLVCANTKSEMWLTGDIVTFEHVRLGTNLQAKKDHQFTQQNCGRGCPIAGHIEVSVSNEKPRSSWGWSTPPDQWKASAGLMVNKEGEGLFDDLGFDHDEL
B3: Uncharacterized protein TGME49_305610 (protein, UniProt S8GG32 1-481)
chain: MATTDGTECKRIIDPTPIDDEGVLTLIELDSQHPVIIAANTQIQQLLLAAVNKLNAEAAALEDRSRLSEESSEKSLEDEQVFNAAALLVSDDREKLCDQMKQCRILLDACNRVVVDLDSIDFSAMKVIWGDERSVRQSRKHLTQLVERMSDCLEKTHLFFKSVFGRLPELAPSPTASAAESSLPVAGVAASSATEGELPEKEESERTAEARGTWVAGDLADAHAPGAGRGCGRGEAFLGAGRGRGLVAGRGRGVAGPAGRGGGFGPGESSSEDEAGRVPTASGDPQAASRASPSSEPPAGEEGEADGERTETAGRKHPRADAEEPGVDKWGNRRWKRKPVAHVDWLLKCRTKLCELKERTVHKAISDVFIKERATQETIENLNHNASKLEVVASKPRAEITADDRRVFMRCIESYIAGLDKACALTAKQAMNKRQLMNLFESACKVEKLQTPEELLQEMRSTASLLQTFAFMPPSRDSDSD
B4: Glutamate 5-kinase domain-containing protein TGME49_265010 (protein, UniProt S8EZC6 1-930)
chain: MLEGERKREDRGRRKTKEDGEETLECDCITAKGRHLLGPWLFLSASQSIFNVKTRAELEITDEMKREADAHSARATHGESHELPAERAAERSEKNRPEAEREERTADKSAMQGDNREEGKAEPSEKGDASPLLLPAGKEVKPGCLVVVKIGTSTLLTATQDRMNMNLSNLGKFVDTICELRMRGHTVVVVSSGAVGAGCVTLRLKQRPENLNTKQALAAVGQCRLMRLYEDLFSVREEKVAQVLLSRHDLLHQKSYQNFQAALKALLALDVIPIINENDSLATEQLRFGDNDTLAAHIAVAVDAHWLFILTDVDCLFDRNPHKYPDARPVAFVNRLTDVYAFLSDGACGAWGTGGMYTKVIASKIATNVGVHVAISNGKYPERILDMLEYARRSETTPTCPDTGSLLSLFPLRSPVREKHDHRRGCCRREATQGEATQGEATQGEAIQGEAIQGEATQGEATQGEAIQGEAIQGEATQGEATGGEATRGEATREVEEAKKKKEKKLARSCREAEKGAQRQRRAGGRGDGRAATGAPEAGERARDERAKSGGGQEEGEEISGKNLQEGEEREKRGNTDRANEWVHGAHASAEPGEVWGEEDRNPVLKEEESIEAGQKGQEQDEESPGENRAQGAFAGPRDGRGQPFSSLMICDNLQQMPFLGTVFIANDRRLHRKGDTRGWILSLPVRGKIFIDPGAVAALVQQKKSLFAAGVHHVSGEFAANDCVAIYITNFPRGSRRPSERPAGTKGSGPPGEQGSLTSGPSRRGQLPLERRNACASQSYGNQQRECLSRSSDEEAAFGFSFSNWCKSAAGSEGPPGGQTPFRAMGGLSESTVFAASPCPIECLEIARCISNVSSSELKVIKGRKSGEFRDLLGYAVDEEVAHRQHIVFTFMNGHEALKSFCLAKHAKFKLAGRTEPPFTQEADSRTGE
B5: Uncharacterized protein TGME49_225120 (protein, UniProt S8F0M5 1-242)
chain: MASRSALHDDLSEDDFLQRRPRKRTWGRTFSVSKTRTGPWGKALKVGTVAILGAAALGIAAKLGHSAAQIYRRQQSETPGGVIGTDPYGNRPPGQAGSPPPSFRSQAEADAAFFSDPLIRETMDSQLPSSSLRRVNEEAYEGNFVSASSAAPAWWLPEEEQNEPIPVVPLPDFSWMLRYVPQRVFDAVNTVNRWIDARERIPVRQDREFGERNQNVGERGLNWSSSLYNVIGPPLKFSPVTW
B6: RNA recognition motif-containing protein TGME49_254210 (protein, UniProt S8FAB3 1-1123)
chain: MREGRTSRSLEGSYDERPLDRPRQKKVFIGNLPVDVTDADLRPVLEKAGPVRSLQIRSSRATGGGRPRSLFAHVEFESEQACEALFSVLDYRVFKGRTLRVEWCDDKQRQKQRGEAAGKRGRSAAFPSASVEREQPLEFADATSEPQRPPSLGRGGPGAPSAASDRRFGAQSSRGRPSGPDEEETHAAEPHGSDEGHFRLSGLKVFAPDGTITQGALEVASKLTRGDLRAILEEIQSLSAQMPATARKALSANPLLCHGLLHAQLALHMTPGEALNLEPLSPAQQETARKILIDRLSLELRLCGGRSPASLASSLCLDASFLPPESSSETVAADLSPDQTPLQESGYSGGGQLQRVCGASPSSGVAPVSEDSRPTQAPSRSAPARGPQAPPVSAGSSGGLSSSLACTESAVSSRADPSVPSPAVSVVPSLAVPSVSAQGVSSVSSEDVSSVSSQEVSSVSSPVASAVSGASFRAPPGSPDRGIGPKRADAGAAPDALPTQPQEAQLRQPLAEGFPAVSVSPGEPSPIRRPPTTEASGAGEGDKTPQESGGDTKGDTEQGVTRPSVSPHNVEAKASEEKRETSQGSGRAPPPSTGASLLTSGSSPTVASPRWPSTKSGDTPPIASTPLGGAASVCSSAPPLLPTPQLPPAFPLARNGREAAFESSRLLSGFPSVPAPARGVCLSVGATSRVPAPAPFAGAGELPGKALSTQTVPELEDRSKPLLANPPGFPLRPPRPAGASQPPGAFPTRAPPPARAGAAAFHNFSPVTPGRESSTPPTSTRPDFASAEEASRGLSQNYVERANVDGGGVAGGAARGPHHTPEGTVKLPGDLWASPVSPGSSFGAARPQASQQPLASTVRGTSLPAGGGMSVASPQDDAGCSQHLKRRRTEAPAGPQTQTTGIKEAPLTSRSGALFGVASSVLASPATRGTSGPVGAAGPSAHLGAGASPQVPQKSRRLSGTSSDSLPSFSSSLGAAACTAVAGEAGRSAHPQGAPGVSLQRQGLPPVAGGPAAGGESRRLQSVSSPQVLQQSAPAAVPQRSISAVGGDSDVPNNPVAAVLALEAAVEEAAPALVDEVMRVPTMLRNILTAPALQMLQWGEAERRQVLSIRKALRKRGCVVLDL
B7: Uncharacterized protein TGME49_213415 (protein, UniProt S8F8Z4 1-120)
chain: MAQGTLVNRIFEGARRLNSSAPCCLVGGSDQATAHTEDGVFGEGERKSGWKEVREVSRLSRGFIGAVAAAPWVFRRVSEEENKMLCSRKASFSERPRSGFLVTAFNAVSSKAGRESSSAR

These are yes or no findings as the source states them, for the method shown. Binding seen in cells or lysates may run through a third protein. These calls come from enrichment with a bait or labelling near it, and not all partners need be listed.

The target in the assay is FLAG-BirA*-MOB1 (Toxoplasma gondii MOB1 fused to the C-terminal end of FLAG-BirA*) (Toxoplasma gondii). The experiment in a line: proximity labelling; BioID: FLAG-BirA*-MOB1 (control: FLAG-BirA*) tachyzoites in HFF cells, 150 µM biotin for 56 h; lysate in sucrose-based lysis buffer on agarose-streptavidin beads overnight at 18 °C; nanoLC-MS/MS; three biological replicates.
In the case of B1, the binding entry is reported as “binds”.
To B2 belongs “binds”; to B3, “binds”.
To B4 belongs “binds”; to B5, “binds”.
Take B6: the binding entry is on record as “binds”.
To B7 belongs “binds”.

The values above are taken from PMC8698288.
